{"source": "patent US20210315886A1", "about": "“IMIDAZOTETRAZINE COMPOUNDS” (The Board of Trustees of the University of Illinois, priority 2018, published 2021)", "system": "GBM Br23c oncospheres intracranially implanted", "assay": "Intracranial mouse model of GBM (Br23c oncospheres)", "assay_type": "in vivo", "conditions": "oral, 15 mg/kg TMZ or equimolar dose", "text": "FIG. 5. Evaluation of imidazotetrazines in intracranial mouse models of GBM. GBM Br23c oncospheres were intracranially implanted into female athymic nude mice. Treatment was started 5 days post implantation. […] Compounds were formulated in 10% PEG in PBS immediately prior to each treatment. Number of mice per treatment cohort ≥5. Survival curves were compared using log-rank test.\nin vivo Efficacy Models. Human GBM Br23c stem-like neurosphere cells were intracranially implanted in female athymic nude mice (150,000 cells/mouse). […] Mice were observed daily for any signs of deterioration, neurotoxicity, or movement disorders. They were inspected for signs of pain and distress, as in accordance with the Johns Hopkins Animal Care and Use Guidelines.", "note": "For at least one compound, name, drawing or mass did not settle the structure.", "data": [{"compound": "Cn1nnc2c(C(N)=O)ncn2c1=O", "note": "[TMZ, temozolomide, reference compound]", "values": [{"measurement": "effect on survival in intracranial model", "value": "significantly increased median survival compared with vehicle"}]}]}
